Test: general procedure: Boc solid-phase peptide synthesis; Tert-butyloxycarbonyl-O-benzyl-threonine-O-CH2-resin; dicyclohexylcarbodiimide
Settings: whole synthesis, scale 0.5 mmole

“L-tyrosyl-D-alanyl-glycyl-L-phenylalanyl-L-methionyl-L-threonyl-L-seryl-L- glutamyl-L-lysyl-L-servl-L-glutaminyl-L-threonyl-L-prolyl-L-leucyl-L-valyl- L-threonine” gave an isolated mass of 328 mg.
